According to PubChem BioAssay AID652054 (National Center for Advancing Translational Sciences (NCATS), 2013):
The campaign covered roughly 360,000 compounds. About 9,100 (2.5%) were called active. Inconclusive means that the source gave no clear call. Such entries were picked first, then a sample of the others. Rule as the data show it: active = max response below about -50%; inconclusive = no clear call, values can overlap the other calls; inactive = above that.

Sequences of proteins named here, by UniProt entry; tags and fusion partners are left off.
UniProt P35462, whole entry, looked up: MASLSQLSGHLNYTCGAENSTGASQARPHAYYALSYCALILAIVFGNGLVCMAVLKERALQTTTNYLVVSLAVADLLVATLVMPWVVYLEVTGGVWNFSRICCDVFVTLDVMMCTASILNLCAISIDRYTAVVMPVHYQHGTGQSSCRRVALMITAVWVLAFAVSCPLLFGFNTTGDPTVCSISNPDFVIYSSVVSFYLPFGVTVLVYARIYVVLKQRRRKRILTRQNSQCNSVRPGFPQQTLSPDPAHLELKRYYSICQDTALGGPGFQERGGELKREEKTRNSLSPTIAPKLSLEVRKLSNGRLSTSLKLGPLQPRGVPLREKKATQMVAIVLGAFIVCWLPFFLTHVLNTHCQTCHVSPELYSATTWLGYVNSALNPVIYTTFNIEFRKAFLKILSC

molecular target: D(3) dopamine receptor (Homo sapiens) (UniProt P35462); test: qHTS of D3 Dopamine Receptor Antagonist: qHTS; details: D3R cells, DiscoveRx beta-arrestin luminescence, antagonist mode; active compounds read low
Summary of the method: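 Cells expressing the human receptor were seeded at 1500 cells/well, incubated overnight at 37 degrees C in 5% CO2, then exposed to library compounds with dopamine controls for 90 minutes at 37 degrees C before luminescent detection.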
% is scaled to controls: 0 for no effect and ±100 for the full control effect.

Max response, negative = inhibition, inactive:
CC(=O)Nc1cccc(-c2ccnc3c2CC(C(=O)Nc2cccc(NS(C)(=O)=O)c2)O3)c1 (stereo not given) 28.4%
C[C@@H](N)C(=O)N[C@H]1CCC2C3CC=C4C[C@@H](O)CC[C@]4(C)C3CC[C@@]21C (stereo not given in full) 2.89%
O=C(c1ccccc1)N(Cc1nc2ccccc2c(=O)[nH]1)C1CCCC1 5.07%
Cc1cc(OCC(=O)Nc2cccc(S(=O)(=O)N3CCCC3)c2)ccc1Cl 6.87%
NC(=O)NOCc1ncc(C(F)(F)F)cc1Cl 34%
CCCCN(C(=O)c1cccc(S(=O)(=O)N(C)c2ccc(C)cc2)c1)c1c(N)n(CC(C)C)c(=O)[nH]c1=O -1.63%
Cc1ccc2c(COC(=O)C34CC5CC(CC(C5)C3)C4)cc(=O)oc2c1 -24.7%
COc1cc(CNc2ccc(CNc3ncn[nH]3)cc2)ccc1OCc1ccccc1 -6%
CS(=O)(=O)Nc1cccc(C2=NN(C(=O)c3ccccc3)C(c3cccs3)C2)c1 (stereo not given) 19.6%
Cc1cc(C)c(NC(=O)CC(=O)c2ccccc2)c(Cl)c1 26.3%
CC1CCN(C(=O)CCCC(=O)N2CCC(C)CC2)CC1 0.657%
Cc1ccc(-c2cc(-c3n[nH]c(=S)o3)c3ccccc3n2)cc1 14%
Cc1ccc(-c2nnc(CSc3nnc(COc4cccc5ccccc45)n3-c3ccccc3)o2)cc1 9.56%
O=C(N/N=C/C=C/c1ccccc1[N+](=O)[O-])c1ccncc1 18.8%
CCc1ccc(N=C2NC(=O)/C(=C/c3cc(OC)c(O)c(OC)c3)S2)cc1 -22.6%
CN(C)S(=O)(=O)n1cc(/C=C(\NC(=O)c2ccccc2F)C(=O)NCCN2CCOCC2)c2ccccc21 61%
N#Cc1ccc(NC(=O)COC(=O)CSc2nnc(-c3ccc(Cl)cc3)o2)cc1 18.3%
C/C(CC(=O)Nc1ccc(Cl)c(Cl)c1)=N\NC(=O)C(=O)N1CCCCC1 -11.7%
CCN(CC)CCN1C(=O)c2ccccc2NC1c1cc(OC)c(OC)c(OC)c1 (stereo not given) -25%
O=C(C(=O)N1CCN(c2ccccc2)CC1)c1ccco1 22.6%
O=[N+]([O-])c1nn(-c2ccc(Cl)cc2)n(O)c1=NCc1ccccc1Cl 0%
Cc1ccc(S(=O)(=O)N(C)C)cc1NC(=O)COC(=O)c1ccc(Cl)cc1 -0.911%
Cc1ccc(S(=O)(=O)NCc2ccc(C(=O)NC3CC3)cc2)cc1 0.634%
COc1ccc(C2CC(c3ccc(C(F)(F)F)cc3)=NN2c2ccc(S(N)(=O)=O)cc2)cc1 (stereo not given) 5.57%

Max response, negative = inhibition, inconclusive:
COc1ccc(C(=O)CC(=O)C(=O)Nc2ccccc2OC)cc1 -39.5%
Clc1ccc(OCc2nnc(SCCN3CCCCC3)n2Cc2ccco2)cc1 -35.5%
COC(=O)C1=C(C(=O)OC)[C@@H]2N(C)c3ccccc3[C@@]23C[C@@H](CO)N(C(=O)NCCBr)C3=N1 -33.5%
O=S(=O)(c1cccs1)N1CCN(c2ccnc3cc(Cl)ccc23)CC1 -34.9%
Cc1ccc(Cl)c2c1NC(=O)C2(O)CC(=O)c1ccc(Br)cc1 (stereo not given) -31.9%
CCc1ccc(NC(=O)c2ccccc2NC(=O)C2CCCO2)cc1 (stereo not given) -48.1%
CC1CCN(c2ccc(C(=O)Nc3nnc(C4CC4)s3)cc2[N+](=O)[O-])CC1 -31.9%
O=C(CCCn1cnc([N+](=O)[O-])n1)Nc1cccc2ccccc12 -48.3%
O=C(CN1C(=O)NC2(CCc3ccccc32)C1=O)NCCc1ccccc1 (stereo not given) -30.9%
CC(C)(C)OC(=O)N1CCC[C@H]1c1nnc(SCC(=O)Nc2ccc(Br)cc2)o1 -40.4%
COc1ccc(S(=O)(=O)N2CCc3ccccc3C2)cc1OC -37.8%
Cc1nc(SCC(=O)Nc2ccccc2)c2oc3ccccc3c2n1 -43.7%
CCN(CC)CCCN(Cc1cc2cc3c(cc2[nH]c1=O)OCO3)C(=S)Nc1ccc(OC)cc1 -30.8%
Cc1ccc2nc(N(CCCN(C)C)C(=O)c3ccc4c(c3)CCCC4)sc2c1 -39.8%
O=c1c(Cl)c(Cl)cnn1-c1ccccc1 -49.2%
S=c1[nH]nc(-c2ccccn2)n1/N=C/c1ccc(-c2ccccc2Cl)o1 -36.5%
Cn1nc(NC(=O)C(F)(F)F)c2ncc(-c3ccccc3)nc21 -40%
O=C(c1ccco1)N1CCN=C1SCc1cccc(Cl)c1 -42.4%
CCc1c(C)c2ccc(OC(C)C(=O)NC(Cc3c[nH]c4ccc(O)cc34)C(=O)O)c(C)c2oc1=O (stereo not given) -44.7%
C=CCN1[C@@H](Cc2ccccc2)COc2cc(N3CCSCC3)ccc2S1(=O)=O -46.8%
Cn1nnc(NC(=S)NC(=O)c2cccc3c(Br)cccc23)n1 -34.1%
COc1ccc(OCCCn2cccc2/C=C2/C(=N)N3OC(C)=CC3=NC2=O)cc1 -37.9%
CC1(C(=O)Nc2cccc3cccnc23)CCN1C(=O)CC1CC1 (stereo not given) -46%
Cc1ccc(-c2cc(NC(=O)CCl)n(-c3ccccc3)n2)cc1 -48.8%
O=C(CN1CCC(Cc2ccccc2)CC1)N1CCc2ccccc2C1 -37.4%
CCN(c1ccccc1)S(=O)(=O)c1ccc(Cl)c(NC(=O)Nc2ccc(Cl)cc2C#N)c1 -36%
Cc1occc1C(=O)NC1CCCCCCC1 -33%
Cc1cc(NC(=O)CCC(=O)N(CCc2ccccc2)C(C(=O)NC2CCCC2)c2ccco2)no1 (stereo not given) -35%
CC1CC(C)CN(CCOc2ccc(Br)cc2)C1 (stereo not given) -46.2%
CC1CN(C(=O)CSc2nnc3c(Cl)cc(Cl)cn23)CC(C)O1 (stereo not given) -35%
Nc1cc(C(=O)OCC(=O)NNC(=O)c2ccccc2)ccc1Cl -46.2%
COc1ccc(N/N=C(/C#N)S(=O)(=O)c2nsc(C)c2C#N)cc1 -34%
COc1ccccc1/C=C\C(=O)NCC(=O)N/N=C(\C)Cc1ccccc1 -37.8%
c1ccc(Cn2nnc3c(N4CCN(Cc5ccc6c(c5)OCO6)CC4)ncnc32)cc1 -31.1%
COc1cccc(C(C(=O)NCc2ccccc2)N2CCN(C(=O)C3CCCO3)CC2)c1OC (stereo not given) -45.7%
CC1(c2nnnn2-c2ccc3c(c2)OCCO3)CCC(=O)N1Cc1cccc(C(F)(F)F)c1 (stereo not given) -38.2%
CC/C(C)=C1\SC(N2CCOCC2)=NC1=O -36.7%
Cn1c(/C=C/c2cccc([N+](=O)[O-])c2)c([N+](=O)[O-])c(=O)n(C)c1=O -30.8%
Cc1noc(C)c1COC(=O)CCN1c2ccccc2Sc2ccccc21 -32%
COC(=O)c1sc2cc(C(F)(F)F)cnc2c1-c1cccnc1 -34.7%
Cc1ccsc1/C=C/c1ccc2cccc(O)c2n1 -46.1%
CC1=C(C(=O)OCc2ccccc2)C(c2ccc3c(c2)OCO3)NC(=O)N1CCCC(=O)O (stereo not given) -32.4%
CC(=O)Oc1ccc(N2C(=O)CC(N3CCOCC3)C2=O)cc1 (stereo not given) -32%
Cc1cc(C)cc(Cn2cc(CN3CC(N4CCN(CCN(C)C)CC4)CS3(=O)=O)nn2)c1 (stereo not given) -34%
COc1ccccc1NC(=S)N(CCc1c(C)[nH]c2ccccc12)Cc1cccs1 -34.7%
COc1ccc(C2C3=C(CCCC3=O)Nc3c(-c4ccccc4)c(C)nn32)cc1 (stereo not given) -36.5%
O=C(Nc1ccccc1)C1=C[C@H](C2CCCCC2)C[C@H](OCc2ccc(CO)cc2)O1 -33.9%
Cc1cc(C(=O)N2CCCC(Nc3ccc(C(C)C)cc3)C2)nn1C (stereo not given) -31.9%
O=C(CN1CCN(C2CCCCC2)CC1)Nc1ccccc1N1CCCCC1 -41.9%

Four successive records from above, quoted:
Max response, negative = inhibition, inconclusive:
c1ccc(Cn2nnc3c(N4CCN(Cc5ccc6c(c5)OCO6)CC4)ncnc32)cc1 -31.1%
COc1cccc(C(C(=O)NCc2ccccc2)N2CCN(C(=O)C3CCCO3)CC2)c1OC (stereo not given) -45.7%
CC1(c2nnnn2-c2ccc3c(c2)OCCO3)CCC(=O)N1Cc1cccc(C(F)(F)F)c1 (stereo not given) -38.2%
CC/C(C)=C1\SC(N2CCOCC2)=NC1=O -36.7%

Following part:

Max response, negative = inhibition, active:
C=C(C)Cn1c2ccc(NC(=S)NCc3ccccc3F)cc2c(=O)n1C -52%
C#CCN(C)CC/C=C1\c2ccccc2CSc2ccccc21 -71.4%
COc1ccccc1Cc1c(-c2cccc(Cl)c2)nc2ccc(Br)cn12 -83%
Cc1ccn(C(=O)c2cc3c(C)nn(-c4ccccc4)c3s2)n1 -51.7%
Cc1ccc(OCC(O)CN2CCN(c3ccc(C)cc3)CC2)cc1 (stereo not given) -87.9%
O=C(NC1CCN(Cc2ccc(F)cc2)CC1)c1ccccc1 -72.4%
CS(=O)(=O)c1ncc(Cl)c(C(=O)Nc2ccc(OC(F)F)cc2)n1 -152%
O=c1oc2ccccc2c(Nc2ccc3ccccc3c2)c1[N+](=O)[O-] -85.7%
COc1ccc(C(O)(C(C)C)C(CN2CCOCC2)c2ccc(Cl)cc2)cc1 (stereo not given) -54.9%
O=C(NCc1ccccc1)c1nc(S(=O)(=O)Cc2ccccc2)ncc1Cl -78.4%
O=C(Cn1c(=O)c2cccn2c2ccc(F)cc21)NCCCN1CCN(c2ccccc2F)CC1 -92.3%
Cc1ccc2c(c1)[C@@H]1CN(C)CC[C@@H]1N2S(=O)(=O)c1ccc(F)cc1 -63.5%
